Source: PMC2815545
These are yes or no findings as the source states them, for the method shown. Binding seen in cells or lysates may run through a third protein. Some entries that bind do so weakly or less than the wild type.

The chains behind the UniProt entries cited, without tags or fusion partners.
UniProt P05549: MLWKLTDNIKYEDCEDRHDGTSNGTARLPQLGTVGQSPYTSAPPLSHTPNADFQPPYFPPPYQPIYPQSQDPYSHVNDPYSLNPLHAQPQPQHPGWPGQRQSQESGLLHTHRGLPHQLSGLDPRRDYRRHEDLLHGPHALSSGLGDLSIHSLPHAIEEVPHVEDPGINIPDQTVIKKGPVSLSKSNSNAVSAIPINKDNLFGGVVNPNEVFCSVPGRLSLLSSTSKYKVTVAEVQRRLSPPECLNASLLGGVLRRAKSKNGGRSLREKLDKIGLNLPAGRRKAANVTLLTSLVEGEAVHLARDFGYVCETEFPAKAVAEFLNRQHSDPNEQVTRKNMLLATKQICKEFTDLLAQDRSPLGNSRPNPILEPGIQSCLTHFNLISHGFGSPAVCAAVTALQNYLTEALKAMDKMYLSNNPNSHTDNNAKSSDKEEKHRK
UniProt P13010: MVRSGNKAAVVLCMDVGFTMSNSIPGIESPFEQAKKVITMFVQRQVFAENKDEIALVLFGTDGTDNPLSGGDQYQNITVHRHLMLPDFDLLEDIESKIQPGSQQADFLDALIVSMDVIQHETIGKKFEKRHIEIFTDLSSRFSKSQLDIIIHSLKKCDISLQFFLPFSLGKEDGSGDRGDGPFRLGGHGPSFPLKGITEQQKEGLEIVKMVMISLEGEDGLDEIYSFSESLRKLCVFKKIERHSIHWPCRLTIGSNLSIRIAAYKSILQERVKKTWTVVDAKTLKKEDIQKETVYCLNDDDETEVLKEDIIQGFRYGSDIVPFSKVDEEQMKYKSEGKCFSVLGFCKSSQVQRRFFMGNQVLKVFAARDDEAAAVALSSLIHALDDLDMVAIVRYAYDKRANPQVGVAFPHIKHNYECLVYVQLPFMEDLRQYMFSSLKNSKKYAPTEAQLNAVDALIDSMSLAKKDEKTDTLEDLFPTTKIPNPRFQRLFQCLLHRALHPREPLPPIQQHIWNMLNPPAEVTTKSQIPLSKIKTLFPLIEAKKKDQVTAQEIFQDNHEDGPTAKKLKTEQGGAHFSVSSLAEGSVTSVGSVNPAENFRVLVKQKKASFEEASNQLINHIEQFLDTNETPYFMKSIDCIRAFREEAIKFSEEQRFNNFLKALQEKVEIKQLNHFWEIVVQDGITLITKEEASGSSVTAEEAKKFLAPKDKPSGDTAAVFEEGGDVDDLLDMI
UniProt P12956: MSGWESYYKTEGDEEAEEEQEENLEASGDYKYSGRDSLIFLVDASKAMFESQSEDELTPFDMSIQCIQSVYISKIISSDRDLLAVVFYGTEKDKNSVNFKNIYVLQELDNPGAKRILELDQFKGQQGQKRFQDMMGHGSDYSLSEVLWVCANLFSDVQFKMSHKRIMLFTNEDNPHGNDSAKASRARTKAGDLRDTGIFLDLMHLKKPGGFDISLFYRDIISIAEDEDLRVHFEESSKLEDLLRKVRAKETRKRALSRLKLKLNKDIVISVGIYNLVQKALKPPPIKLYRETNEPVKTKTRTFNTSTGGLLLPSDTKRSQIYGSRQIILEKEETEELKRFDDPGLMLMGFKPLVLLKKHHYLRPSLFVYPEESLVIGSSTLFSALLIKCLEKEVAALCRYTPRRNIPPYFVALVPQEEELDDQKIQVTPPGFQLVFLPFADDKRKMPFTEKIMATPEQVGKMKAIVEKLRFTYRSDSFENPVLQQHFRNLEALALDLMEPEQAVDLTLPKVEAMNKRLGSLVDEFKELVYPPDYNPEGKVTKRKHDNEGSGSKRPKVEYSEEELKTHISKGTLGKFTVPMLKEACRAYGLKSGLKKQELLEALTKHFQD

Key:
[1] = biological target: AP-2α (human (endogenous; all cell lines of the paper are human)) (UniProt P05549); assay: co-IP; Dynabeads Protein G with anti-AP-2α (C-18), Ku70 (C-19), Ku86 (C-20) antibodies or control antibody; proteins revealed by immunoblotting; endogenous proteins
[2] = biological target: Glutathione-Serine-Transferase/AP-2α (GST-AP2) hybrid protein (UniProt P05549); assay: pull-down; GST-AP2 on MagneGST beads incubated with BT474 nuclear proteins in PBS at RT; eluted with Laemmli buffer; immunoblotting with Ku specific antibodies; also after treatment of the beads with increasing concentrations of DNase I (1 h, 37°C); only the target purified

| binding [1] | binding [2] | Substance |
| --- | --- | --- |
| binds | binds | Ku80 (from UniProt P13010 1-732) |
| binds | binds | Ku70 (from UniProt P12956 1-609) |
